# Measurements: PubChem BioAssay (EPA / NIEHS)
# Sequences of proteins named here, by UniProt entry; tags and fusion partners are left off. A change or cut given only in a name is not applied to a line headed by its entry.
# UniProt P05177, whole entry, looked up: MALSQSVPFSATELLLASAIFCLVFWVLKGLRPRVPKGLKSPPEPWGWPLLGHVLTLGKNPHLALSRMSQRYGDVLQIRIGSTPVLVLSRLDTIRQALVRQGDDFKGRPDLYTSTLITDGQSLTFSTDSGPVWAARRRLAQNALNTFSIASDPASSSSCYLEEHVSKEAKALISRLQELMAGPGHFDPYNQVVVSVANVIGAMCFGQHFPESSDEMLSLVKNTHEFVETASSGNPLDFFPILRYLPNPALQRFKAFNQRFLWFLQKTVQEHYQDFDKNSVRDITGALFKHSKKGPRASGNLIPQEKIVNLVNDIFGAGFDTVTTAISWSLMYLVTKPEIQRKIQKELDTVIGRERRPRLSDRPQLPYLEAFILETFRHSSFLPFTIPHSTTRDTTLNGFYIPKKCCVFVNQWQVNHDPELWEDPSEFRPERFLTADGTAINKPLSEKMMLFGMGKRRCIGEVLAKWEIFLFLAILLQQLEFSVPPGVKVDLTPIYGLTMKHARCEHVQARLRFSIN
# UniProt P10635, whole entry, looked up: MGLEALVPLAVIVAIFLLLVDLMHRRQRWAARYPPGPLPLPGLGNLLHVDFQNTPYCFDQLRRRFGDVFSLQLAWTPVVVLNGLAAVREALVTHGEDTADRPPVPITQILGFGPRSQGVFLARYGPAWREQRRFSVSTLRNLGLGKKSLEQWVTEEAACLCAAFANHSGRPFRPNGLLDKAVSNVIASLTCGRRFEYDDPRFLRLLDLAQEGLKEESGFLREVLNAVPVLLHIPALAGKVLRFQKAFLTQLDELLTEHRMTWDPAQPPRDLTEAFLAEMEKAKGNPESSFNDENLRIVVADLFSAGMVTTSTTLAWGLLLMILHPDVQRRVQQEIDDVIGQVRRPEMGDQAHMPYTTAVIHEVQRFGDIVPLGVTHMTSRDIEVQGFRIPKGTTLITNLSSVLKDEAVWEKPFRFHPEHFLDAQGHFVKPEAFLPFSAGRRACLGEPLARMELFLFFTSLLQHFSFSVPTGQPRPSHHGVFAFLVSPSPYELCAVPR
# UniProt P15149: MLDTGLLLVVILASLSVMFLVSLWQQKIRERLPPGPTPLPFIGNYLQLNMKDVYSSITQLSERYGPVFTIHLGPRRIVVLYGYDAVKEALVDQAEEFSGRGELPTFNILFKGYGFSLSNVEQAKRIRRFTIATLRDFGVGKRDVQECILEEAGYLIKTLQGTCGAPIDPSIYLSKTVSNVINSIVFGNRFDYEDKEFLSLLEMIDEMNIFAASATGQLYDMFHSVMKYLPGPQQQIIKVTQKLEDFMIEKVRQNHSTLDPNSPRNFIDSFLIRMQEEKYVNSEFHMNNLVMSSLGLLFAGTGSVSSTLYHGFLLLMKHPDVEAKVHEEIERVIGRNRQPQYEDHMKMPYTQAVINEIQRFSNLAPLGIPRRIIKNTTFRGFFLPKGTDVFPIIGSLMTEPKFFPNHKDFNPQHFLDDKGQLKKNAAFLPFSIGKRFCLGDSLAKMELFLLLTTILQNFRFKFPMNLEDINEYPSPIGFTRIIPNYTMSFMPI
# UniProt P10634: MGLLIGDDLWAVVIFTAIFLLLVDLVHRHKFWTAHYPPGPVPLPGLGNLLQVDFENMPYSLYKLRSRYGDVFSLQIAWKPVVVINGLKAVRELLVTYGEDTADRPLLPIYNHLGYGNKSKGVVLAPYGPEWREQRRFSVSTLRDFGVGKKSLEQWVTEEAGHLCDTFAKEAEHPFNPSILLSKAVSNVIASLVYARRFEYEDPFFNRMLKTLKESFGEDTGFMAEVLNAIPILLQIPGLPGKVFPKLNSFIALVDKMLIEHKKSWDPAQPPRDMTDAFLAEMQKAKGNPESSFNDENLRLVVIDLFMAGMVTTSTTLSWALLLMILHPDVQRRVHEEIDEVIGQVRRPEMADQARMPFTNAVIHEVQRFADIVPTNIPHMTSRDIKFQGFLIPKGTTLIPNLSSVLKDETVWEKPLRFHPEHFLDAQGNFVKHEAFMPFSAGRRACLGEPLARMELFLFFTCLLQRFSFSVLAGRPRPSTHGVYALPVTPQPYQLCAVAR
# The shares of active, inactive and inconclusive entries below differ from those in the screen. For part of these data: Where the call is inconclusive, the potency comes from a doubtful curve fit. Activity calls are given as the source filed them. The calls were made as follows: active = hit-call score of the fitted dose curve at least 0.9, where 1 is the maximum; inconclusive = response in the unintended direction; inactive = score below 0.9.
# How the values were obtained:
# [1] = target: human CYP1A2, CYP1A2 (gene 1544) (UniProt P05177); experiment: NVS_ADME_hCYP1A2: NovaScreen (NVS) CYP450-related Enzyme Activity (ADME) Assay for human CYP1A2 (AID 2283102);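 also: fluorescence from turnover of a fluorogenic substrate by recombinant insect-cell CYP1A2; potency for inhibition since loss of fluorescence marks reduced CYP1A2 activity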
# Summary of the method: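 Enzyme activity of insect-cell-expressed human CYP1A2 measured by fluorescence 0.5 h after compound addition, relative to acetonitrile. Compounds first tested in duplicate at 10 uM, actives followed up in concentration series.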
# [2] = target: human CYP2D6, CYP2D6 (gene 1565) (UniProt P10635); experiment: NVS_ADME_hCYP2D6: NovaScreen (NVS) CYP450-related Enzyme Activity (ADME) Assay for human CYP2D6 (AID 2283107)
# Summary of the method: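 Fluorescence readout of recombinant CYP2D6 (insect-cell derived) activity after 1 h incubation with test chemical. Acetonitrile served as baseline, loss-of-signal direction. Single-concentration duplicate screening at 10 uM preceded concentration-response retesting.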
# [3] = target: rat CYP2A2, Cyp2a2 (gene 24895) (UniProt P15149); experiment: NVS_ADME_rCYP2A2: NovaScreen (NVS) CYP450-related Enzyme Activity (ADME) Assay for rat CYP2A2 (AID 2283116)
# Summary of the method: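 Cell-free recombinant rat CYP2A2 activity with fluorogenic substrate, fluorescence read 0.2 h after dosing. Chemicals screened at 10 uM in duplicate, hits then run in concentration-response up to 20 uM; signal loss versus acetonitrile baseline.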
# [4] = target: rat CYP2D2, Cyp2d26 (gene 25053) (UniProt P10634); experiment: NVS_ADME_rCYP2D2: NovaScreen (NVS) CYP450-related Enzyme Activity (ADME) Assay for rat CYP2D2 (AID 2283124)
# Experimental: NVS_ADME_rCYP2D2 is a biochemical, single-readout assay that uses extracted gene-proteins in a cell-free assay. Measurements were taken 0.75 hour after chemical dosing in a 96-well plate.NVS_ADME_rCYP2D2 is one of one assay component(s) measured or calculated from the NVS_ADME_rCYP2D2 assay. It is designed to make measurements of enzyme activity, a form of enzyme reporter, as detected with fluorescence intensity signals by Fluorescence technology.Data from the assay component NVS_ADME_rCYP2D2 was analyzed into 1 assay endpoint. This assay endpoint, NVS_ADME_rCYP2D2, was analyzed in the positive analysis fitting direction relative to Acetonitrile as the negative control and baseline of activity. Using a type of enzyme reporter, loss-of-signal activity can be used to understand changes in the enzymatic activity as they relate to the gene Cyp2d2. Furthermore, this assay endpoint can be referred to as a primary readout, because this assay has produced multiple assay endpoints where this one serves a enzymatic activity function. To generalize the intended target to other relatable targets, this assay endpoint is annotated to the cyp intended target family, where the subfamily is xenobiotic metabolism. […]
# [5] = system: rat CYP3A1, gene 25642; experiment: NVS_ADME_rCYP3A1: NovaScreen (NVS) CYP450-related Enzyme Activity (ADME) Assay for rat CYP3A1 (AID 2283126)
# Summary of the method: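 Cell-free recombinant CYP assay with fluorescent substrate, read 0.5 h after dosing. Screened at 10 uM in duplicate, hits at up to 20 uM in concentration-response; loss of signal versus acetonitrile baseline.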
smiles,measurement,setting,value
CC(=O)OCCC(C)C,AC50,[1],inconclusive: 0.684 µM
CCOC(=O)CCC(=O)OCC,outcome,[2],inactive
CCNc1nc(N)nc(Cl)n1,outcome,[3],inactive
COC(=O)CSc1cc(N=c2sc(=O)n3n2CCCC3)c(F)cc1Cl,outcome,[4],inactive
same,AC50,[5],inconclusive: 10 µM
O=C(Nc1ccc([N+](=O)[O-])cc1Cl)c1cc(Cl)ccc1O,AC50,[5],inconclusive: 2.68 µM
